Data reported in patent US7550613B2, “Compounds” (Pronova Biopharma Norge AS, priority 2005, dated 2009).

Assay: Effect of DHA derivatives in adipose prone mice during 4 months of dietary interventions (Example 5a)
Format: in vivo, male C57BL/6 mice
Protocol: All experiments were performed on male C57BL/6 mice, either a substrain C57BL/N (supplier: Charles River, Germany, n=160, experiments A-C, see below), or a substrain C57BL/6J (supplier: the Jackson laboratory, Bar Harbor, Me., USA, n=32, experiment D). Total numbers of animals used were higher (n=170 and 36, respectively), because of culling. In the latter case, animals were bred for several generations (<20) at the Institute of Physiology. At the beginning of the treatment, animals were 14-week-old and their body weight range was 23.6-27.1 g. One week before the study start, animals were sorted according to their body weight and assigned to subgroups (n=8) of similar mean body weight. This method allowed for culling of about 5-10% of animals showing the lowest and highest body weight, respectively. The animals eliminated from the study at this stage were sacrificed by cervical dislocation. Complete health check of mice was performed by the supplier Charles River and at the start of study serological tests were performed by ANLAB (Prague, Czech Republic). In addition, regular health checks were performed in the animal house in 3-mo-intervals using sentinel mice and serological examinations (ANLAB). In all the tests, the animals were free of specific pathogens.
• (i) Chow diet (ssniff R/M-H from SSNIFF Spezialdieten Gmbh, Soest, Germany; see also http://ssniff.de) with protein, fat and carbohydrate forming 33, 9, and 58 energy %, respectively • (ii) High-fat diet prepared in the laboratory (cHF diet) with protein, fat and carbohydrate forming 15, 59, and 26 energy %, respectively, and well characterized fatty acid composition (with most of the lipids coming from corn oil; see Ruzickova 2004) • (iii) cHF diets in which 0.15, 0.5, and 1.5% of fat (specifically the corn oil constituent) was replaced by various PRB-compounds, namely PRB1, PRB2, PRB5, PRB7, and PRB8, or by DHA. All these compounds were in the form of ethyl esters, provided by Pronova Biocare a.s. in sealed containers. […]

CC/C=C\C/C=C\C/C=C\C/C=C\C/C=C\C/C=C\CC(SCC)C(=O)OCC (stereo not drawn) [PRB-7, α-tioethyl docosahexaenoic acid ethyl ester]
Food intake (0.15% concentration): 2.59 ± 0.02 grams/mouse/day
Food intake (0.5% concentration): 2.69 ± 0.03 grams/mouse/day
Food intake (1.5% concentration): 2.68 ± 0.03 grams/mouse/day
